Test results taken from publication PMC2860243.
These are yes or no findings as the source states them, for the method shown. In cells and extracts the contact can be indirect. A yes stands for co-enrichment or nearness to the bait. Other partners may have been found.

Amino acid sequences for entries named in this document (tags omitted).
UniProt P20263: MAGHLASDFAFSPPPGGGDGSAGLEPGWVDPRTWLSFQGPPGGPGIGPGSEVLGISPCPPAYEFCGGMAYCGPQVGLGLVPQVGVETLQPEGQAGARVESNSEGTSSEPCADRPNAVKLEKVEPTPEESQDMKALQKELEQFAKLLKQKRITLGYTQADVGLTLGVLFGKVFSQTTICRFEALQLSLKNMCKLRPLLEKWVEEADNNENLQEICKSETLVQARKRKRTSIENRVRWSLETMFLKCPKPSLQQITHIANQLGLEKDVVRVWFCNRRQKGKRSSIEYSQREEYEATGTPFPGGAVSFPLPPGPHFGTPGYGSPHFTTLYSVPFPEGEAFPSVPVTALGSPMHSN

B1: Foxp4 (protein, UniProt Q9DBY0 1-795)
chain: MMVESASETIRSAPSGQNGVGSLSAQADGGGGAGTAGTAPAAGRDASGREAASGGADSNGEMSPAELLHFQQQQALQVARQFLLQQASSLNSPGNNDSKQSASAVQVPVSVAMMSQQMLTPQQMQQILSPPQLQALLQQQQALMLQQLQEYYKKQQEQLHLQLLTQQQAGKQQPKEALGNKQLAFQQQLLQMQQLQQQHLLNLQRQGLVSLQPSQASGPLQALPQAVCPTDLPQLWKGEGAPGQPAEDSGRQEGLDLASTAVTATSFASPPKVSPPLSHHPLPNGQPTVLTSRRDSSSHEETPSSHPLYGHGECKWPGCETLCEDLGQFIKHLNTEHALDDRSTAQCRVQMQVVQQLEIQLAKESERLQAMMAHLHMRPSEPKPFSQPVTVSADPFPDGLVHPPTSAAAPVTPLRPPGLGSASLHSGGPARRRSNDKFCSPISSELAQNHEFYKNADVRPPFTYASLIRQAILETPDRQLTLNEIYNWFTRMFAYFRRNTATWKNAVRHNLSLHKCFVRVENVKGAVWTVDEREYQKRRPPKMTGSPTLVKNMISGLSYGALNASYQAALAESSFPLLSNPGMLNPGSASSLLPLSQEDLGVPGEPLPSNGSSSPPRLSPPQYSHQIQVKEEPAEAEEDRRPGPPLGAPNPSTVGPPEDRDLEEDLGGEDMPSQPCPLIPGWKPSLLHLSYCVKPKFTVSVGSKTPSSPLPPPPRVQGSYSLPPCSYLAYGDMRGQNPAPSPGLLSGVGGGLFRCLHRTKSPSLPGVWILAAELETMRFHRPPMGDPQPKTADWV
B2: L1td1 (protein, UniProt Q587J6 1-782)
chain: MSGVQSKAARLQKERKEKLSADRERKTATSLCLKHSEVPASMMKQFNALMEMQEVMFAEMRETYKNDIKEMLLKRTAPWVKHLEERIGQQEGDAISERPKPGEKVEELSSGTDEDTENLTVRSKKGKQDKAKPLNSSHVLKSSLERGGEALRGEHGRCGESSSLVDWKNANEKPAREASCQSEENRLKAPKESPPEGGAGATLRLAADFSAATLDVGRQWSQVFRLLKEKELEPELQCSVKLAFKCDGEANVFSDLHSLRQFTSRKPFLRELLKDVFPQNEGGRRNELRERLGKTLGDTKHEARRIASDSLSFLFIKEVEVASPEVKTYKEETLDRKNKGTLKKQEGEEEEISETQGEETSEGETSELGEEEGSESEEEEESSESEEEEESSESAEEIGFISLVVDSESEEEVNRKTASQTKKKETFHGLKELAFSYLVWDSKKKKLVRCQEGGAAAASTQRIGMPCLTLYLTSPSESLGAGSDGPKSHSCTKLSALSQVTPLLTNIEKGRYKVPQTEEPTAKEADLILETEENFKRGVISVIRQMQREVDKIKNIYVSDVLNMKSSLDDLNSLACTIEARVSEQEDAVEGLTKDTMQLAREIVDKERLREREDRFRSSNIRVIGIPEKENRENGAVDIIKEVIEENFAELEDQSLEIVSAHRVPNSVDEHRLTPRHILVKFGSASDKQRVLKASRAKQEITYRGSKIRLTADLSPGTIDARSQWCGIIKILQDEGFQPRILYPAKLAFDFKGKTKIFFDIEEFKKFISDIPYLKDLLNNIH
B3: Rbm14 (protein, UniProt Q8C2Q3 1-669)
chain: MKIFVGNVDGADTTPEELAALFAPYGTVMSCAVMKQFAFVHMRENAGAVRAIEALHGHELRPGRALVVEMSRPRPLNTWKIFVGNVSAACTSQELRSLFERRGRVIECDVVKDYAFVHMEKEADAKAAIAQLNGKEVKGKRINVELSTKGQKKGPALAIQSGDKTKKPGAGDTAFPGTGGFSATFDYQQAFGNSTGGFDGQARQPTPPFFGRDRSPLRRSPPRASYVAPLTAQPATYRAQPSVSLGAAYRAQPSASLGVGYRTQPMAAQAASYRAQPSVSLGAPYRGQLASPSSQSAAASSLGPYGGVQPSASALSTYGGQAAAASSLNSYGAQGSSLASYGNQPSSYGAQAASSYGVRAAASSYNTQGAASSLGSYGAQAASYGAQSAASSLAYGAQAASYSAQPSASYSAQSAPYAAQQAASYSSQPAAYVAQPATAAAYASQPAAYAAQATTPMAGSYGAQPVVQTQLNSYGAQASIGLSGSYGAQSAAAATGSYGAAAAYGAQPSATLAAPYRTQSSASLAASYAAQQHPQAAASYRGQPGSAYDGTGQPSAAYLSMSQGAVANANSTPPPYERTRLSPPRASYDDPYKKAVAMSKRYGSDRRLAELSDYRRLSESQLSFRRSPTKSSLDYRRLPDAHSDYARYSGSYNDYLRAAQMHSGYQRRM

Biological target: Oct4 (Pou5f1) (mouse (endogenous in 46C ESCs)) (UniProt P20263)
Assay: affinity purification with mass spectrometry; immunoprecipitation of endogenous Oct4 (antibody sc-8628 cross-linked to protein G Sepharose) from 1 ml 46C ESC nuclear extract, Benzonase, washes with C-100*, 4°C, boiled in SDS-loading dye; control goat IgG

binding, binds:
B1
B2
B3

Biological target: FLAG-Oct4 (F-Oct4) (mouse) (UniProt P20263)
Assay: affinity purification with mass spectrometry; FLAG-affinity purification of F-Oct4 from 1.5 ml ESC nuclear extract on anti-FLAG M2 agarose, buffer C-100 (20 mM HEPES pH 7.6, 100 mM KCl), washes with 0.02% NP-40, Benzonase, 4°C, FLAG peptide elution; three purifications; control ZHBTc4 extract

binding, binds:
B1
B2
B3
